Laboratory results from PubChem BioAssay AID1671190 (National Center for Advancing Translational Sciences (NCATS), 2021).
The campaign covered roughly 580,000 compounds. About 6,100 (1.1%) were called active. The inconclusive results got no clear call from the source; some entries with a clear call stand among them for comparison. Calls follow the shape of the dose curve; as a rule, active = well fitted inhibition curve with a large enough effect; inconclusive = small, poorly fitted or top-dose-only effect, or another doubt; inactive = no such curve, though single readings can be large or run the other way. Where the call is inconclusive, the potency comes from a doubtful curve fit.

Amino acid sequences for entries named in this document (tags omitted). A change or cut given only in a name is not applied to a line headed by its entry.
UniProt P18054: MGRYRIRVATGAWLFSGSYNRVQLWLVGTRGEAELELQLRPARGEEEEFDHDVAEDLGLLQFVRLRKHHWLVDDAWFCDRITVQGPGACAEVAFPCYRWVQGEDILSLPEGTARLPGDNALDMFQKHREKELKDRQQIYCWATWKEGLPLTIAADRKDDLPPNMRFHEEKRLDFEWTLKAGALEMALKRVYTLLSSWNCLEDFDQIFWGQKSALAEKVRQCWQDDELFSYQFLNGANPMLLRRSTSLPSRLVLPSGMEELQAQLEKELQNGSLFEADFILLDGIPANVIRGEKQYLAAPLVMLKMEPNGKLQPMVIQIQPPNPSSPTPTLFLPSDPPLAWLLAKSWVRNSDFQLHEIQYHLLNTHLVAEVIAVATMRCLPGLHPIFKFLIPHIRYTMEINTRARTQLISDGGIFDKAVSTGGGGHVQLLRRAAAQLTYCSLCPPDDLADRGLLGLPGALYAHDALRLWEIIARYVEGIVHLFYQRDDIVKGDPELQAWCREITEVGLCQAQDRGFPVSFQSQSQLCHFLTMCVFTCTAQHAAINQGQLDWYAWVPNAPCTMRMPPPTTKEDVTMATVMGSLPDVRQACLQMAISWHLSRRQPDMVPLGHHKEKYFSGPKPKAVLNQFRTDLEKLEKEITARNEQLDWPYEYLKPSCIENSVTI

Target: Polyunsaturated fatty acid lipoxygenase ALOX12 (Homo sapiens) (UniProt P18054)
Assay: Primary qHTS assay for inhibitors of human arachidonate 12S-lipoxygenase (ALOX12): Round 2
Details: purified 12hLO, xylenol orange hydroperoxide absorbance; activity change, negative = inhibition: at 108 µM (top of the series) unless noted
Outline: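 Purified human 12hLO (150 nM final) in 25 mM Hepes, 0.01% Triton X-100, pH 7.0 was preincubated 15 min at room temperature with compound. Then 40 uM arachidonic acid was added, 30 min. Hydroperoxide was read by Fe-XO absorbance ratio 573/405 nm.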
% is scaled to controls: 0 for no effect and ±100 for the full control effect; potency is read from the fitted curve at half-maximal effect.

Structure (SMILES)	Potency	activity change, negative = inhibition
O=C(CCSc1ccccc1F)Nc1cccc(-n2cnnn2)c1	inconclusive: 50.1 µM [inhibitor, partial curve, poor fit]	–
CCN1CCN(S(=O)(=O)c2c(C)cc(C)cc2C)CC1	–	inactive: 0%
CCn1cc(C(=O)N2CCc3ccccc32)c(=O)c2cc(S(=O)(=O)N(C)C3CCCCC3)ccc21	inconclusive: 39.8 µM [inhibitor, single point]	–
O=C(O)c1ccc(N2C(=O)CC(N3CCN(c4ccc(Cl)cc4)CC3)C2=O)cc1 (configuration not stated)	–	inactive: 0%
COC(=O)[C@@]12C[C@@H](CC(=O)N3CCCC3)C(=O)N(Cc3cccc4ccccc34)C1=CCC(C)(C)C2	–	inactive: 8.01%
CCOC(=O)c1sc(=S)n(-c2cc(C)cc(C)c2)c1N	inconclusive: 44.7 µM [inhibitor, partial curve, poor fit]	–
COC(=O)C1CN(Cc2cn(Cc3ccc(Cl)cc3)nn2)CCS(=O)(=O)N1Cc1ccccc1 (configuration not stated)	inconclusive: 31.6 µM [inhibitor, partial curve, poor fit]	–
COc1cc(NC(=O)COc2cc(C)cc3oc(=O)cc(C)c23)cc(OC)c1	–	inactive: -23.3%
CCCCOc1cccc(C(=O)Nc2cc(NC(=O)c3ccco3)ccc2OC)c1	–	inactive: -20.4%
CC1=C[C@@H](CNC(=O)COCC(=O)O)[C@H](C(C)C)C[C@H]1Cc1nc2c(C)cccc2[nH]1	inconclusive: 10 µM [inhibitor, full curve]	–
Cc1ccc(NC(=O)CSc2nc3ccncc3[nH]2)cc1F	inconclusive: 100 µM [inhibitor, single point]	–
COc1ccc2nc(NC(=O)c3ccccc3[N+](=O)[O-])sc2c1	inconclusive: 1.41 µM [inhibitor, full curve, poor fit]	–
CCc1cc(C(=O)Nc2sc(C)c(CC)c2C#N)no1	–	inactive: -16.2%
Nc1nc2ncc(C(=O)c3cc(Cl)cc(Cl)c3O)cc2s1	inconclusive: 50.1 µM [inhibitor, partial curve, poor fit]	–
CCOC(=O)c1cc(-c2ccccc2)sc1NC(=O)CCN1CCN(C)CC1	inconclusive: 0.794 µM [inhibitor, full curve, poor fit]	–
CCC(C)NC(=O)NCCc1noc(-c2ccncc2)n1 (configuration not stated)	–	inactive: 21.2%
COc1cccc2c(C)nc(Nc3nc(CSc4nnc(C)s4)cc(=O)[nH]3)nc12	–	inactive: 37.4%
COCC1CN(C2CCC2)CC12CCN(C(=O)NCc1ccc(F)cc1)CC2 (configuration not stated)	inconclusive: 25.1 µM [inhibitor, full curve]	–
CC(=O)N1CCC2(CCCN(c3ccc(-c4ccccc4)cc3)C2)CC1	inconclusive: 17.8 µM [inhibitor, single point]	–
CCCCCOc1ccc(C(=O)CCC(=O)Nc2ccc(NC(C)=O)cc2)cc1	inconclusive: 112 µM [inhibitor, single point]	–
CNC(=O)c1cc[nH]c1C1CCCN(C(=O)c2cscn2)C1 (configuration not stated)	–	inactive: 3.83%
CC(c1ccccc1)n1cc2c(c1-c1ccccc1Br)c(=O)n(C)c(=O)n2C (configuration not stated)	inconclusive: 44.7 µM [inhibitor, partial curve]	–
COc1ccc(-c2cnc(C)o2)cc1S(=O)(=O)Nc1c(C)cc(C)cc1C	inconclusive: 112 µM [inhibitor, partial curve, poor fit]	–

Structure (SMILES)	Potency	activity change, negative = inhibition
O=C(NCc1ccc2c(c1)OCO2)c1c[nH]c2ccc(S(=O)(=O)N3CCOCC3)cc2c1=O	inconclusive: 17.8 µM [inhibitor, full curve, poor fit]	–
Cc1ccc(CNC(=O)c2c(O)nc3cc(C)ccn3c2=O)cc1	inconclusive: 3.16 µM [inhibitor, full curve, poor fit]	–
CSc1ccc(/C=C/C(=O)c2cc3cc(Cl)ccc3oc2=O)cc1	inconclusive: 126 µM [inhibitor, partial curve, poor fit]	–
Nn1c(SCC(=O)Nc2nnc(-c3ccccc3)o2)nnc1C1CC1	inconclusive: 0.355 µM [inhibitor, full curve, poor fit]	–
COc1cc(/C=C2\SC(=S)N(NC(=O)c3ccncc3)C2=O)ccc1O	inconclusive: 25.1 µM [inhibitor, partial curve]	–
O=C(CSc1ccc(Cl)cc1)OCc1nnc(-c2ccccc2)o1	inconclusive: 4.47 µM [inhibitor, full curve, poor fit]	–
Cc1cccc2c(-c3ccccc3)c(-c3ccccc3)[nH]c12	–	inactive: -6.47%
COC(=O)C(c1ccccc1)(c1cn(C)c2ccccc12)C(Nc1ccc(OC)cc1)c1ccccc1 (configuration not stated)	inconclusive: 112 µM [inhibitor, single point]	–
Cc1oc2ccc(O)c(CN3CCCC3)c2c1C(=O)Nc1ccc(C(C)C)cc1	–	inconclusive: -39.1% [inhibitor]
CCc1c(C)sc(NC(=O)OC)c1C#N	active: 25.1 µM	–
COc1ccc(-c2cc(-c3ccc(C)cc3)n[nH]2)c(O)c1	inconclusive: 17.8 µM [inhibitor, full curve, poor fit]	–
COc1ccc(Oc2ncc3nc(-c4ccc(F)cc4)c(=O)n(C4CC4)c3n2)cc1	inconclusive: 39.8 µM [inhibitor, single point]	–
Cc1ccccc1C(=O)NC(NC(=O)c1ccccc1C)c1ccc(Cl)cc1	–	inactive: 1.65%
CN1C(=O)c2cccc3c(S(=O)(=O)NCc4ccco4)ccc1c23	inconclusive: 44.7 µM [inhibitor, single point]	–
O=C(CCc1nnc(CCCc2ccccc2)o1)NCC(F)(F)F	–	inactive: 7.5%
CSCCC(NC(=O)COc1ccccc1)C(=O)OCCOc1ccc(F)cc1 (configuration not stated)	inconclusive: 89.1 µM [inhibitor, single point]	–
COCCN(Cc1ccc(C(C)C)cc1)Cc1cc(=O)n2c3c(sc2n1)CCCC3	–	inactive: -8.52%
COc1ccccc1CCC(=O)NC1CCc2nn(CC3CC3)c(=O)n2CC1 (configuration not stated)	–	inactive: 62.4%
CC1CCc2c(sc(NC(=O)c3ccc(N4C(=O)CCC4=O)cc3)c2C(N)=O)C1 (configuration not stated)	inconclusive: 50.1 µM [inhibitor, partial curve, poor fit]	–
Cc1cccc(NC(=O)CNC(=O)CCc2nc3sc4c(c3c(=O)[nH]2)CCCC4)c1C	active: 10 µM	–
COc1cccc(-c2cc3nc4c(c(NCC(C)(C)CN(C)C)n3n2)CCCC4)c1	inconclusive: 89.1 µM [inhibitor, partial curve, poor fit]	–
CC(C)COc1ccc(C(=O)N2CCCCC2CCN2CCCCC2)cc1 (configuration not stated)	inconclusive: 100 µM [inhibitor, partial curve, poor fit]	–
COc1ccc(-c2c(NC(=O)c3cccc([N+](=O)[O-])c3)oc3c(C)cccc3c2=O)cc1OC	–	inactive: -1.43%

Structure (SMILES)	Potency	activity change, negative = inhibition
COc1ccc(-c2cc(N3CCC(NC(=O)c4ccc(N(C)C)cc4)C3)n[nH]2)cc1 (configuration not stated)	inconclusive: 79.4 µM [inhibitor, single point]	–
O=C1Nc2ccccc2C12CCN([S+](=O)([O-])c1ccsc1)CC2	–	inactive: 9.9%
COc1ccc(N2C(=O)CC(SC(C)C)C2=O)cc1 (configuration not stated)	inconclusive: 12.6 µM [inhibitor, partial curve, poor fit]	–
CCOC(=O)C(NCCCCl)c1ccccc1 (configuration not stated)	inconclusive: 35.5 µM [inhibitor, single point]	–
c1ccc2c(c1)OCC(c1nnc3sc(-c4cnccn4)nn13)O2 (configuration not stated)	inconclusive: 25.1 µM [inhibitor, partial curve]	–
CCCn1nc(C(=O)N2CCC(C(=O)OCC)CC2)c2ccccc2c1=O	–	inactive: 28.9%
O=C(OCc1nc2ccccc2o1)c1cccc(S(=O)(=O)NCc2ccccc2)c1	–	inactive: -12.2%
CC(=O)OCC(=O)[C@@]12OC(C)(C)O[C@H]1C[C@H]1[C@@H]3C[C@H](F)C4=CC(=O)C=C[C@]4(C)[C@@]3(F)[C@@H](O)C[C@@]12C	inconclusive: 6.11 µM [inhibitor, partial curve, poor fit]	–
Cc1nccc(CNc2ncc(C(N)=O)cc2Cl)n1	inconclusive: 39.8 µM [inhibitor, partial curve, poor fit]	–
Cc1cc(C(O)c2ncc(-c3cccc4ccccc34)[nH]2)ccc1F (configuration not stated)	inconclusive: 112 µM [inhibitor, single point]	–
CCOC(=O)C1CCCN(C(=O)C2COC3(CCCCC3)N2C(=O)c2cccc(Cl)c2)C1 (configuration not stated)	–	inactive: 64.1%
Oc1ccc(Nc2nc(NCC3CCCO3)c3ccccc3n2)cc1 (configuration not stated)	inconclusive: 89.1 µM [inhibitor, single point]	–
COCC(=O)N1CCC(Oc2ccc(C(=O)N3CCCCCC3)cc2)CC1	–	inconclusive: -31.7% [inhibitor]
CCC(CC)C(=O)Nc1cc(C)c2c(=O)oc3ccccc3c2n1	inconclusive: 126 µM [inhibitor, single point]	–
COc1ccc(/C=C/C(=O)NC(=S)NNC(=O)c2c(-c3ccccc3)noc2C)cc1	inconclusive: 11.2 µM [inhibitor, full curve]	–
CC1Cc2ccccc2N1C(=O)CSc1nnc(CSc2ncccn2)n1C (configuration not stated)	inconclusive: 0.199 µM [inhibitor, full curve, poor fit]	–
CCC(C)NC(=O)COC(=O)c1c[nH]c2ccccc12 (configuration not stated)	–	inactive: 25.4%
Cc1cccc(-c2nnn3c2nc(NCc2ccc4c(c2)OCO4)c2ccccc23)c1	inconclusive: 112 µM [inhibitor, partial curve, poor fit]	–
CCc1ccc([C@H]2C(C(=O)O)=C[C@@H](CC3CCCC3)N2S(=O)(=O)c2ccc(C)cc2)cc1	–	inactive: -85.2%
CCC(C)N1CCC(CN)C1 (configuration not stated)	inconclusive: 0.0891 µM [inhibitor, full curve, poor fit]	–
Cc1noc(-c2ccccc2NC(=O)c2ccncc2)n1	inconclusive: 1 µM [inhibitor, full curve, poor fit]	–

As a short view, part of the list above.
Structure (SMILES)	Potency	activity change, negative = inhibition
COc1ccc(/C=C/C(=O)NC(=S)NNC(=O)c2c(-c3ccccc3)noc2C)cc1	inconclusive: 11.2 µM [inhibitor, full curve]	–
CC1Cc2ccccc2N1C(=O)CSc1nnc(CSc2ncccn2)n1C (configuration not stated)	inconclusive: 0.199 µM [inhibitor, full curve, poor fit]	–
